Assay: Extractive distillation agent separating methyl t-butyl ether from n-pentane-cyclopentane mixtures (vapor-liquid equilibrium still)
Assay type: physicochemical

CC(=O)N(C)C [Dimethylacetamide]
Relative Volatility Pnt/MTBE: 3.5

From patent US5228957A, “Separation of methyl T-butyl ether from close boiling C5 hydrocarbons by extractive distillation” (priority 1993, dated 1993)
